Data on four substances can be found in publication PMC3948860.

Amino acid sequences for entries named in this document (tags omitted). A change or cut given only in a name is not applied to a line headed by its entry. Residues count along the entry.
UniProt P50406: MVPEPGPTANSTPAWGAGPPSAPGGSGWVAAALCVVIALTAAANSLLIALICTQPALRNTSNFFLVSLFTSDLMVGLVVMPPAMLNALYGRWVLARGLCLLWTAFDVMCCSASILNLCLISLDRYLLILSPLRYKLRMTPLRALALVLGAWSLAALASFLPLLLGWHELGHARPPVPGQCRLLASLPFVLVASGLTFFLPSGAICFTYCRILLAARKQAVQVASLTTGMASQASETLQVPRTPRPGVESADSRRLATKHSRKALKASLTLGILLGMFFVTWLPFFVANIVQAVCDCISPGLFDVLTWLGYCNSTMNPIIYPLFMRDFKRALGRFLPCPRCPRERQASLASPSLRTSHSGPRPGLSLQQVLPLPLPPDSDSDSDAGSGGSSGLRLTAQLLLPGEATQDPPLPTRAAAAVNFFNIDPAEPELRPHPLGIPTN
GST-carboxyl-terminus (CT) of the 5-HT6R: residues 321-440 of P50406
UniProt P15205: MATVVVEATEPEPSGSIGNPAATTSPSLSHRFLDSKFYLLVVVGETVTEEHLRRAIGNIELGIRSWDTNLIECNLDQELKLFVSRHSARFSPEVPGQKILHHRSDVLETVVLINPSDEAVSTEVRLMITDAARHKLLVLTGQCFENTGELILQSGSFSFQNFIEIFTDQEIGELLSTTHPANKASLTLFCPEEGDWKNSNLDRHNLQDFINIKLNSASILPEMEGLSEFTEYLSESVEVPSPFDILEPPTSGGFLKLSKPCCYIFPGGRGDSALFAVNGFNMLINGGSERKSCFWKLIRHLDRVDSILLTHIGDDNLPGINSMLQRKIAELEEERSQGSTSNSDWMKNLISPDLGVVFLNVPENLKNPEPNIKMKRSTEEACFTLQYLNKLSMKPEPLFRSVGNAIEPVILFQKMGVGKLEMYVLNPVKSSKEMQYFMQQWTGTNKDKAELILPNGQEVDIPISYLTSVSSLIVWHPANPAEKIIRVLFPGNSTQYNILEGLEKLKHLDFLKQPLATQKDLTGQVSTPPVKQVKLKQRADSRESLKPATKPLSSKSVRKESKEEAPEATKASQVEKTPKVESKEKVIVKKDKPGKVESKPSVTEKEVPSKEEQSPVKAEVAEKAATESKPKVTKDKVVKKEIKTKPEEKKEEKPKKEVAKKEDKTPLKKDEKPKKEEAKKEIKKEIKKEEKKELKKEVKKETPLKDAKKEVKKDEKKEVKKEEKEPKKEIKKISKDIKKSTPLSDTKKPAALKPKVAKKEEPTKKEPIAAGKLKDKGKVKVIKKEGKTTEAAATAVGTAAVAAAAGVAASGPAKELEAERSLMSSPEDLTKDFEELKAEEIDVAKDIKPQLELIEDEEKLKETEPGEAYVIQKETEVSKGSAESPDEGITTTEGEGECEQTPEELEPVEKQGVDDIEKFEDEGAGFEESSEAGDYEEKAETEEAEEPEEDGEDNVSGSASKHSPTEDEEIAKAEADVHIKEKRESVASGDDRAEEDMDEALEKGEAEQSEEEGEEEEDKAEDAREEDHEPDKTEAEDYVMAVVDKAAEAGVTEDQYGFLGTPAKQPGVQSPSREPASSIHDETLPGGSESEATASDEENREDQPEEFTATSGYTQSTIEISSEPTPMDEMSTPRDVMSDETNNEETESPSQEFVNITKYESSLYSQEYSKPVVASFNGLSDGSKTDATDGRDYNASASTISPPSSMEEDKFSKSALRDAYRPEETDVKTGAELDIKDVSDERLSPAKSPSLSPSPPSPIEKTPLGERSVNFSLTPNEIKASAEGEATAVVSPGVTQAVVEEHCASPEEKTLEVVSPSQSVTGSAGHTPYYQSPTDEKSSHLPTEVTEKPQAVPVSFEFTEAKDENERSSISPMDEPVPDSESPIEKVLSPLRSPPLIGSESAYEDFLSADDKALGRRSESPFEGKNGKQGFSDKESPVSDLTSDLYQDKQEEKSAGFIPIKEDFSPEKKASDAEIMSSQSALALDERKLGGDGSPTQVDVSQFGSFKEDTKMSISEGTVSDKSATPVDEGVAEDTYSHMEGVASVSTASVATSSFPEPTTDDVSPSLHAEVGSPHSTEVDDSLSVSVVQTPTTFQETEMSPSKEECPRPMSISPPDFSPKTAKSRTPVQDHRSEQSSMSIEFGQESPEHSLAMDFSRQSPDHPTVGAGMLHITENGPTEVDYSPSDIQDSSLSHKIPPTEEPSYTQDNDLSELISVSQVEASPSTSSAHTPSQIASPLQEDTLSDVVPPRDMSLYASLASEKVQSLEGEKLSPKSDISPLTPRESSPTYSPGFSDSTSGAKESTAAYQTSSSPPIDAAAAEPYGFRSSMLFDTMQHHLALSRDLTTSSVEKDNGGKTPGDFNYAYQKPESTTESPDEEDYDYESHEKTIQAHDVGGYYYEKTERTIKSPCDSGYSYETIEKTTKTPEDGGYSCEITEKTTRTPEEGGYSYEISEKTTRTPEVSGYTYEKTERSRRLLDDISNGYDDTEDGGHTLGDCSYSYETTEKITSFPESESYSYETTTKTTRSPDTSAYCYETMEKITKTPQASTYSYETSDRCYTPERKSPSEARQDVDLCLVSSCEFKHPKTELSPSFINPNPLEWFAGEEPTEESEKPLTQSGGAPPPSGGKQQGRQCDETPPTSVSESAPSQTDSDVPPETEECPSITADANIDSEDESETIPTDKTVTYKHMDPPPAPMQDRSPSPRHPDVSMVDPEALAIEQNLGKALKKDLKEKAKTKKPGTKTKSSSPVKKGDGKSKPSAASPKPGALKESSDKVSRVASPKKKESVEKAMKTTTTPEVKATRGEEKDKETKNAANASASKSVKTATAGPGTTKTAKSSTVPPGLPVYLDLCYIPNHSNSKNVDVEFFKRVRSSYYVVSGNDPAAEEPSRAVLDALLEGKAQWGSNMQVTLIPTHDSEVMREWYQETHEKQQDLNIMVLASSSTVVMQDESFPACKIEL
UniProt P31388: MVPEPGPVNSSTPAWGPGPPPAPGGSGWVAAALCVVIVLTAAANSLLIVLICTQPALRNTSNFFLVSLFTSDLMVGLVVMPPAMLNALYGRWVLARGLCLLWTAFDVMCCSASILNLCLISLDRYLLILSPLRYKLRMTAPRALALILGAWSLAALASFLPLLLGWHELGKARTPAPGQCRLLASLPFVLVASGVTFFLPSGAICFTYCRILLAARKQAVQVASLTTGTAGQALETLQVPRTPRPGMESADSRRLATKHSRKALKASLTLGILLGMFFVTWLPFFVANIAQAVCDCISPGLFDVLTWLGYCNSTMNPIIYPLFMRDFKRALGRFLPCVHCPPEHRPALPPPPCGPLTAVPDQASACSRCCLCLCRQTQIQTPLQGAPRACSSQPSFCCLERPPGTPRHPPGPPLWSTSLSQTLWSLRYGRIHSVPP
UniProt P46821: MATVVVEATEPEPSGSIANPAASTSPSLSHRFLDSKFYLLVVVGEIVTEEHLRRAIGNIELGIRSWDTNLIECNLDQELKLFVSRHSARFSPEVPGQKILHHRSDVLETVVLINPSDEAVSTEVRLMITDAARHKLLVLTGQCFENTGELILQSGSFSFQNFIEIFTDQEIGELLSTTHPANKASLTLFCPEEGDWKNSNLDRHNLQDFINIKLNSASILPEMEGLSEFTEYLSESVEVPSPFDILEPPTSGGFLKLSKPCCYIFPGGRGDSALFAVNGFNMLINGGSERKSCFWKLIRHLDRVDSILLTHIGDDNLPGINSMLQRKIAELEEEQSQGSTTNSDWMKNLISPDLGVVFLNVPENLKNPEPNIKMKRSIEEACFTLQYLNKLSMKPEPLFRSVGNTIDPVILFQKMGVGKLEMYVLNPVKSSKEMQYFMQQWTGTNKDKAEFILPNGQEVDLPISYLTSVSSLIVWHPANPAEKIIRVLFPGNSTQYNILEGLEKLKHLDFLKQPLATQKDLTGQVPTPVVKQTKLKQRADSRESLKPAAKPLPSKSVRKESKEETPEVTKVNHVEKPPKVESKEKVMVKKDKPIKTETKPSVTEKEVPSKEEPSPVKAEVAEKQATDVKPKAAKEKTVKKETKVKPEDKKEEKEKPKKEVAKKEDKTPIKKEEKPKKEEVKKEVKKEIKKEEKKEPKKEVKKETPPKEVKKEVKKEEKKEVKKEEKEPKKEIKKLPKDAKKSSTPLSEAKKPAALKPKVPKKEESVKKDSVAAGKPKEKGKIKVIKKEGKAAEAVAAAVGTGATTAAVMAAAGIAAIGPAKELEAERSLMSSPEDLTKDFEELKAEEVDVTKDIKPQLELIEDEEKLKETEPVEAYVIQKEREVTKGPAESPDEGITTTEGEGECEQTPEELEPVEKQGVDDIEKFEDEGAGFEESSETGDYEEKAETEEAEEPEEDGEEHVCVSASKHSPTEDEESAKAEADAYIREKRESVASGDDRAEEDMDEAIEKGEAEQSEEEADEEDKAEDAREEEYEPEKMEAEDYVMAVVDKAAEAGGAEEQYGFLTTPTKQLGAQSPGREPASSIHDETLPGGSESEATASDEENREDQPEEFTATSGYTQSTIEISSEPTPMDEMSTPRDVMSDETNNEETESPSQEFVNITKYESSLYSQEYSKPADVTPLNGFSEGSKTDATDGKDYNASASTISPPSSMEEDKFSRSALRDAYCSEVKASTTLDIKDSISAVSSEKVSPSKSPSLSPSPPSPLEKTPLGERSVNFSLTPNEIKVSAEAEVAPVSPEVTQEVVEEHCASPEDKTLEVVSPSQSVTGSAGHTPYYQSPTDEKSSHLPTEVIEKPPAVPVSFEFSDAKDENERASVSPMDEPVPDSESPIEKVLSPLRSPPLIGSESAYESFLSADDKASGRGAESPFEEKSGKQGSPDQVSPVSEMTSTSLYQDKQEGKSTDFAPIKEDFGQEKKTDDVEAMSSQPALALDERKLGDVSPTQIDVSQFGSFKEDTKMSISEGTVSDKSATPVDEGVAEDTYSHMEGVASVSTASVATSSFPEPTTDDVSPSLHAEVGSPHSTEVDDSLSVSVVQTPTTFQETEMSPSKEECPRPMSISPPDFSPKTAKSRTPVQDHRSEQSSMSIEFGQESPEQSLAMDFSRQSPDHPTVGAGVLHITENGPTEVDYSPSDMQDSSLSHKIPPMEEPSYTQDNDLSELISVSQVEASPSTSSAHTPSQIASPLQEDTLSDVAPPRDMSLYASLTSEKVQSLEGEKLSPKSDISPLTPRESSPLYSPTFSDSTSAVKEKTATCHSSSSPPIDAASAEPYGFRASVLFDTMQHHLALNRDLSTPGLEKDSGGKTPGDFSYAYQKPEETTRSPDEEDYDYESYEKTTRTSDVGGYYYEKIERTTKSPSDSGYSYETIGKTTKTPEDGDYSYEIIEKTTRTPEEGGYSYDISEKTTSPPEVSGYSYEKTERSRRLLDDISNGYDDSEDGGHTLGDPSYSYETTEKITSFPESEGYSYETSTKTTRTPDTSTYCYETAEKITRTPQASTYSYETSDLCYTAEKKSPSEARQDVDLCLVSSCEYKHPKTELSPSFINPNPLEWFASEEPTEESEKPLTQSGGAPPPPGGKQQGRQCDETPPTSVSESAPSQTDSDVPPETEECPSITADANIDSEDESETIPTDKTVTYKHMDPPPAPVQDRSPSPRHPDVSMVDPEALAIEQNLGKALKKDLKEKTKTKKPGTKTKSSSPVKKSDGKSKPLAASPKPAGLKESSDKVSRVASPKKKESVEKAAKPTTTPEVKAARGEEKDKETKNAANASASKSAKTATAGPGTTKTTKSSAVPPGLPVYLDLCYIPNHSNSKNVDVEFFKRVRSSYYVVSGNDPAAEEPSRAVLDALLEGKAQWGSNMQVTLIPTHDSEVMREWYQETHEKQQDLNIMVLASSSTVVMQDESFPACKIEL

Test [1] deals with HA-tagged 5-HT6R, stably expressed in HEK293 cells (HEK293/HA-6R) (human) (UniProt P50406). Briefly: co-IP; HEK293/HA-6R cells transiently transfected with Flag-LC1; immunoprecipitation with anti-HA, immunoblot with anti-Flag.
Test [2] concerns the target GST-carboxyl-terminus (CT) of the 5-HT6R (human) (UniProt P50406). Briefly: pull-down; GST-tagged CT regions immobilized on glutathione gel, incubated with HEK293 cell lysates containing Flag-LC1; three washes with lysis buffer; immunoblot with anti-Flag and anti-GST; only the target purified. On the technique in general: In western blotting, separated proteins are transferred to a membrane and probed.

Test [3] addresses endogenous MAP1B of rat brain (rat (endogenous in fetal rat brain)) (UniProt P15205). In words: co-IP; fetal rat brain lysate; reverse: immunoprecipitation with anti-MAP1B, immunoblot with 5-HT6R antibodies.
In test [4] the target is endogenous 5-HT6R of rat brain (rat (endogenous in fetal rat brain)) (UniProt P31388). Briefly: co-IP; fetal rat brain lysate; immunoprecipitation with anti-5-HT6R, immunoblot with anti-MAP1B; control IgG.
Test [5] deals with HA-5-HT6R, transiently expressed in SH-SY5Y cells (human) (UniProt P50406). Briefly: co-IP; SH-SY5Y cells transiently transfected with HA-5-HT6R; immunoprecipitation with anti-HA, immunoblot with anti-MAP1B; control IgG.

Results are given in words; binding and its absence hold for the method and conditions named. In cells and extracts the contact can be indirect. Some binding calls cover weakened binding; strength is not graded here.

Take “Flag-tagged LC1 of MAP1B (from UniProt P46821 2207-2468) (domain or fragment)”: the binding entry in test [1] and in test [2] was “binds” in each case.

As to “endogenous 5-HT6R of rat brain (from UniProt P31388 1-436) (receptor)”, the binding entry in test [3] is reported as “binds”.

Take “endogenous MAP1B of rat brain (from UniProt P15205 1-2461)”: the binding entry in test [4] is on record as “binds”.

As to “endogenous MAP1B protein of SH-SY5Y cells (from UniProt P46821 1-2468)”, the binding result in test [5] was “binds”.
